Source: paper PMC6748134
Where two headings read alike, the source gives them in different places. Results are given in words; binding and its absence hold for the method and conditions named. Binding seen in cells or lysates may run through a third protein. Some entries that bind do so weakly or less than the wild type. One block for each molecule: values may come before it.

Amino acid sequences for entries named in this document (tags omitted).
UniProt Q16665: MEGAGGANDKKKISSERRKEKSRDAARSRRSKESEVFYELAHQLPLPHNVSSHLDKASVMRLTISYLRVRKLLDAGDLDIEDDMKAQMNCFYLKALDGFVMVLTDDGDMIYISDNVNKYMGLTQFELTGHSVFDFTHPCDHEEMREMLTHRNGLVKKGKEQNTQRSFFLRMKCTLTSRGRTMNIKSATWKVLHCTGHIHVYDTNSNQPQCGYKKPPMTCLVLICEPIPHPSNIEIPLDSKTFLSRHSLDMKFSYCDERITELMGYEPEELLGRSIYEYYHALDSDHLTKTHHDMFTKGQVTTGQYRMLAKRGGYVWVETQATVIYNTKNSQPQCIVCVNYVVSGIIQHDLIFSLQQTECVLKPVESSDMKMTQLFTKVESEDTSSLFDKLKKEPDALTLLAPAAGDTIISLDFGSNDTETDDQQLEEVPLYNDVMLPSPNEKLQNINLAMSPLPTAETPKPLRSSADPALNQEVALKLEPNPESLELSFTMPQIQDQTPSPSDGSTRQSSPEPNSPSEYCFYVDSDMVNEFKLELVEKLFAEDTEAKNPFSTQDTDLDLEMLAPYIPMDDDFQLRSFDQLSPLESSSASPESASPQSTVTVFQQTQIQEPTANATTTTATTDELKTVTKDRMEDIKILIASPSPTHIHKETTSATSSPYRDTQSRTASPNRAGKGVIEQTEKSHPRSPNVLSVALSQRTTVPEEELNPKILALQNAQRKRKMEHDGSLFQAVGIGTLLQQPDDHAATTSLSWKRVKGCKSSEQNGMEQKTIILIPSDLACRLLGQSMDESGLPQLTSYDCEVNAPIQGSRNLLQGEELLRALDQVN
UniProt O00629: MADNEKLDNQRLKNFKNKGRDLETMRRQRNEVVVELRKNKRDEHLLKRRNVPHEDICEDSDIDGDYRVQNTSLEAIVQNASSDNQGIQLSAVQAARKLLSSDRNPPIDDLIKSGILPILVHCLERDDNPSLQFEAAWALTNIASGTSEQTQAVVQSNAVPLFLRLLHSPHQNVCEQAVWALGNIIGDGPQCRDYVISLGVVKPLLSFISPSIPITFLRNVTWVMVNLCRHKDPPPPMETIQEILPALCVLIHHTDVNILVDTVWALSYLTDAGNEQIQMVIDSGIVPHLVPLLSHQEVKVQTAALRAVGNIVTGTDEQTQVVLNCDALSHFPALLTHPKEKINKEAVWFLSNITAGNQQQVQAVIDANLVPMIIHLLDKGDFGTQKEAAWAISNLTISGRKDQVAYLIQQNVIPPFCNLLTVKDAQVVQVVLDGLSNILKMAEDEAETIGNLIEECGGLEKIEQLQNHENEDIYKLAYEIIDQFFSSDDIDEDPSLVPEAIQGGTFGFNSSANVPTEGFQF
UniProt Q8TD16: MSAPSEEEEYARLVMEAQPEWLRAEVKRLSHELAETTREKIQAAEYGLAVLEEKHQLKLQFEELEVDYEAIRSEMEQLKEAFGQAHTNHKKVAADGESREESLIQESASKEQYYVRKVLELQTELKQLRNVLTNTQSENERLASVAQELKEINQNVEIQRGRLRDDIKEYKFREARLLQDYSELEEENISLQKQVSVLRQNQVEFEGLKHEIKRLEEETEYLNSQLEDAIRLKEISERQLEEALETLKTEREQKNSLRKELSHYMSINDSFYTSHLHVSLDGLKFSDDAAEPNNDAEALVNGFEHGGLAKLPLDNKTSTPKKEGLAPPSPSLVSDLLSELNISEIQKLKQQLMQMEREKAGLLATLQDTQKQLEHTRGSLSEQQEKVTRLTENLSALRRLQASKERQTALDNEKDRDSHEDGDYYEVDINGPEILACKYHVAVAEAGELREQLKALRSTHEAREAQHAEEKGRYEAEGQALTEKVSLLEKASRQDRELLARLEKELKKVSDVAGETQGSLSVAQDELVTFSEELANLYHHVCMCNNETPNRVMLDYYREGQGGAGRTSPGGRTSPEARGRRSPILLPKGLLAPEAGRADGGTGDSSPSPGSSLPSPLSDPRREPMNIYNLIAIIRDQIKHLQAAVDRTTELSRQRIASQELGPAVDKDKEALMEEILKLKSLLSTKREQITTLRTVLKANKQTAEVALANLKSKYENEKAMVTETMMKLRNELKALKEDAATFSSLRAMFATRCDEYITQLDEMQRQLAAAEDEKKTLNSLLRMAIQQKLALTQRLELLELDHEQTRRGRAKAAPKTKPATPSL
UniProt P49841: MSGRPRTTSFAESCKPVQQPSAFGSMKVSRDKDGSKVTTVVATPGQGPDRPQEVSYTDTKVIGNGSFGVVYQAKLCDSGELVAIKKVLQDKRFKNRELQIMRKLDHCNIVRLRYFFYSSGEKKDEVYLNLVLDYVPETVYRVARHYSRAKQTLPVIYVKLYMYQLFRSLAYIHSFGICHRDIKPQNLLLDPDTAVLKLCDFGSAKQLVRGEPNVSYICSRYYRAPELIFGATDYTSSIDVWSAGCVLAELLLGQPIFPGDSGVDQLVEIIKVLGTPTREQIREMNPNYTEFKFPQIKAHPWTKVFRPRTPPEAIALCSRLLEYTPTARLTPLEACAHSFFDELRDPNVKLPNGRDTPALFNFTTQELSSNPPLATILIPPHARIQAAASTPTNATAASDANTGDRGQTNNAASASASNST
UniProt P49792: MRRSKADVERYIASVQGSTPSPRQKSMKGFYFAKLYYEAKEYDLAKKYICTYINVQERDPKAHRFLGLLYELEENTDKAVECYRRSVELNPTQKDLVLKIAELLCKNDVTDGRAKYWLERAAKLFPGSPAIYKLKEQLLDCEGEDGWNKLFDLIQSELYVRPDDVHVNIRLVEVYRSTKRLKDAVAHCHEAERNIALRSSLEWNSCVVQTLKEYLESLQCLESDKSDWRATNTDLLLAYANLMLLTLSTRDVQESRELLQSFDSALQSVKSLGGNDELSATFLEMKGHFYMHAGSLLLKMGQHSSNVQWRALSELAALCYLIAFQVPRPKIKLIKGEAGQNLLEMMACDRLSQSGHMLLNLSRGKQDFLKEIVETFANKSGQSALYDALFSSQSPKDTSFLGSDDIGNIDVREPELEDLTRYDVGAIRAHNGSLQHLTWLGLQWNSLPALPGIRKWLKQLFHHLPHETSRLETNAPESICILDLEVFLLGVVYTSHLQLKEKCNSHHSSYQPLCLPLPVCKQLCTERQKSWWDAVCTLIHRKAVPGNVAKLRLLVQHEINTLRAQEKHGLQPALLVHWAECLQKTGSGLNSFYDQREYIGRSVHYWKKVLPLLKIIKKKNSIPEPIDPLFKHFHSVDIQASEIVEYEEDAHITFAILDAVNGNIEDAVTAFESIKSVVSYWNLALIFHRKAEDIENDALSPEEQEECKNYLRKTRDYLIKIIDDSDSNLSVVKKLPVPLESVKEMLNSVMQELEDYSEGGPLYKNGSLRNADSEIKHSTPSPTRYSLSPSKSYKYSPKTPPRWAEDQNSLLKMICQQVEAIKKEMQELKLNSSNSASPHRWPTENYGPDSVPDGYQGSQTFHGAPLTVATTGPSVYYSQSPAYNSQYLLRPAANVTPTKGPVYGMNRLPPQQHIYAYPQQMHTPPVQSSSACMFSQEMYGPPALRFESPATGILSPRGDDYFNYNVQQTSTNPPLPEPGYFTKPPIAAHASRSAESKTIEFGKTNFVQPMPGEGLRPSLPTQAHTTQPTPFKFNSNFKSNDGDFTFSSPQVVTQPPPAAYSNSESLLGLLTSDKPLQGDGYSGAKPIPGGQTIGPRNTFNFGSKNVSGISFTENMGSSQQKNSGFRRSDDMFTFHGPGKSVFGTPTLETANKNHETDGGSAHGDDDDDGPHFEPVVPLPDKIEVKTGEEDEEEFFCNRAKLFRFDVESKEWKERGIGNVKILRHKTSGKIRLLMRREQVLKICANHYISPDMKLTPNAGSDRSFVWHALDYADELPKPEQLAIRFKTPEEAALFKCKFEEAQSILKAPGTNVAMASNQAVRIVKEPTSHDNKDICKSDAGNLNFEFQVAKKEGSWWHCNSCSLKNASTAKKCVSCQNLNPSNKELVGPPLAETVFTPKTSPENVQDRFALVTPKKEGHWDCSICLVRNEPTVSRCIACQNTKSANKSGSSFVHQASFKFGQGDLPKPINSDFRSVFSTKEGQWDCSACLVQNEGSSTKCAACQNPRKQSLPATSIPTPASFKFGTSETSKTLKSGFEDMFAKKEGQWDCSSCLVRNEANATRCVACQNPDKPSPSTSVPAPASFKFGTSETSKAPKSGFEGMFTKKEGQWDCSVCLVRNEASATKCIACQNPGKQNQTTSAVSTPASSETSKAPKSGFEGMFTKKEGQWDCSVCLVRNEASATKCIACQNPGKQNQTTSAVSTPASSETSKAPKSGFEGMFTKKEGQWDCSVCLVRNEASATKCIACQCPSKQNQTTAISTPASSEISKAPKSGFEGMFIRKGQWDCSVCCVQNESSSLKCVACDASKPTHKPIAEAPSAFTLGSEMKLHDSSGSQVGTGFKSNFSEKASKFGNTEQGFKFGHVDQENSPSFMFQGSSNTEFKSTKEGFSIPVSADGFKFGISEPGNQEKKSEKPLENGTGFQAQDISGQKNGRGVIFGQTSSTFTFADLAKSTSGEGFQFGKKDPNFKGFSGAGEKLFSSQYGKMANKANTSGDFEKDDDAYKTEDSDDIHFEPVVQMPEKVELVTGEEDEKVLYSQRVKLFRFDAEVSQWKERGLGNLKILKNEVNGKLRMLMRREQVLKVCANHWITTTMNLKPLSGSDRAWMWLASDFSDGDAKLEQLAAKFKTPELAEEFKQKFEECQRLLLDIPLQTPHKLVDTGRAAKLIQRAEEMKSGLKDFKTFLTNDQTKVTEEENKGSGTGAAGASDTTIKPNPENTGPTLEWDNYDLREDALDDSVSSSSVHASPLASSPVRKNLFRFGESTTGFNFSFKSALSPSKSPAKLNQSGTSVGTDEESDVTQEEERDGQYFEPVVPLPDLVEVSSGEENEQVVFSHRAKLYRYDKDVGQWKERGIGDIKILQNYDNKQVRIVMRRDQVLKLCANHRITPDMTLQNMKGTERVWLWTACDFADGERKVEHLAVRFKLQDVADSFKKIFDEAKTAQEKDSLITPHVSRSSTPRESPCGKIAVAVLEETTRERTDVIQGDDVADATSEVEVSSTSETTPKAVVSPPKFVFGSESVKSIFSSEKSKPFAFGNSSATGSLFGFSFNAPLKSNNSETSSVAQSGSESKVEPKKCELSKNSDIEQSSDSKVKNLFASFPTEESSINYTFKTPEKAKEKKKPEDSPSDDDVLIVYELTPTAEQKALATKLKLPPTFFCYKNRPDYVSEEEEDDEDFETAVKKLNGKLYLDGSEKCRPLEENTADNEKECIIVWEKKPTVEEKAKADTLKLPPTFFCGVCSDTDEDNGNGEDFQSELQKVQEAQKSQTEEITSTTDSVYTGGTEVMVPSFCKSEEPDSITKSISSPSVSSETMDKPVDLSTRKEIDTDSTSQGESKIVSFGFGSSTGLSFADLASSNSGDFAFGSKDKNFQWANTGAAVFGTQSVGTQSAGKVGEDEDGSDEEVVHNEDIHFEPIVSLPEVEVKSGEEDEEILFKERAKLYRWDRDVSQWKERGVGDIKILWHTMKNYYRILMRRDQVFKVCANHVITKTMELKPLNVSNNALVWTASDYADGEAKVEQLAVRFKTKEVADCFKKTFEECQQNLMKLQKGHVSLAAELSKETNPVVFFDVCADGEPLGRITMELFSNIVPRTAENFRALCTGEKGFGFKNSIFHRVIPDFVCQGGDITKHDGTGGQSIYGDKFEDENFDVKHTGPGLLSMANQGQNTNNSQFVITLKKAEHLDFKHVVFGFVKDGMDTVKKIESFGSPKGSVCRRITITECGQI

Experiments:
[1] = target: T1, Bicaudal D homolog 1 (human (endogenous in UCB-MSCs)) (UniProt Q96G01); assay: co-IP; UCB-MSC lysates (20 mM Tris-HCl pH 8.0, 137 mM NaCl, 1% Nonidet P-40, 2 mM EDTA); primary antibody on Protein G magnetic beads, 6 h at 4 C; western blot; cells under normoxia or hypoxia 24 h, in some panels with MG132, wortmannin, ciliobrevin D, CoCl2 or NT siRNA
T1 sequence: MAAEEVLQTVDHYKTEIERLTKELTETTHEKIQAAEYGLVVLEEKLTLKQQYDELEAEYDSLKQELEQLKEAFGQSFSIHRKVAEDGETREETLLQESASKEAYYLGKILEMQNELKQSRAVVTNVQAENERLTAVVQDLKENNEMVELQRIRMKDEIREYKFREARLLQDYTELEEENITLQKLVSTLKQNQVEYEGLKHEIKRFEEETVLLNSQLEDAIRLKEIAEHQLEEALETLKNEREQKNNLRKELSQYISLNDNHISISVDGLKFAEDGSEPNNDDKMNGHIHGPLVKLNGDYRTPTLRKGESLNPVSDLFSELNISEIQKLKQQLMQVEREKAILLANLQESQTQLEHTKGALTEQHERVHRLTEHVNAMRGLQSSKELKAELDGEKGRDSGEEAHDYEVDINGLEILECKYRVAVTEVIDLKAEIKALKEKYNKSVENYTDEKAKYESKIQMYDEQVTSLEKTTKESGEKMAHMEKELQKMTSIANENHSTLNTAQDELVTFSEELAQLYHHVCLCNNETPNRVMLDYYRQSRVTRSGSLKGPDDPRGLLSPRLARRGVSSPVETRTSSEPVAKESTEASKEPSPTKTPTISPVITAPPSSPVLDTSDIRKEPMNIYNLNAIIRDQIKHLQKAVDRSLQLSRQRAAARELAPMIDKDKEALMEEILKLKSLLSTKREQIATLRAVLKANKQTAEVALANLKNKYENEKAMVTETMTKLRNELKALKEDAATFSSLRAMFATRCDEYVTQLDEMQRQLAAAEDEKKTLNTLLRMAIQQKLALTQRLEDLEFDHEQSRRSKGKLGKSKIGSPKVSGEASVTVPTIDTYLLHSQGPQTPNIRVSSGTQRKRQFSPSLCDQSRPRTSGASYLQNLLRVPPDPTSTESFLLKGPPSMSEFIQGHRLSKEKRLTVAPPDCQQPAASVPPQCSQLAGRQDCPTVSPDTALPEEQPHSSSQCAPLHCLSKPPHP

[2] = target: T1, Bicaudal D homolog 1 (human (endogenous in UCB-MSCs)); assay: proximity ligation; in situ Duolink PLA on fixed UCB-MSCs, normoxia or hypoxia, antibodies in proximity < 40 nm, SRRF microscopy
[3] = target: Hypoxia inducible factor 1α (human (endogenous in UCB-MSCs)) (UniProt Q16665); assay: co-IP; UCB-MSC lysates (20 mM Tris-HCl pH 8.0, 137 mM NaCl, 1% Nonidet P-40, 2 mM EDTA); primary antibody on Protein G magnetic beads, 6 h at 4 C; western blot; cells under normoxia or hypoxia 24 h, in some panels with MG132, wortmannin, ciliobrevin D, CoCl2 or NT siRNA
[4] = target: Hypoxia inducible factor 1α (in SK-N-MC cells) (human (endogenous in SK-N-MC)) (UniProt Q16665); assay: co-IP; SK-N-MC neuroblastoma cells, normoxia or hypoxia (Supplementary Fig. S6A); method taken from the paper's co-immunoprecipitation protocol, legend not shown
[5] = target: Hypoxia inducible factor 1α (human (endogenous in UCB-MSCs)) (UniProt Q16665); assay: co-IP; UCB-MSC lysates (20 mM Tris-HCl pH 8.0, 137 mM NaCl, 1% Nonidet P-40, 2 mM EDTA); primary antibody on Protein G magnetic beads, 6 h at 4 C; western blot; cells under normoxia or hypoxia 24 h, in some panels with MG132, wortmannin, ciliobrevin D, CoCl2 or NT siRNA; remark: listed apart in the source

Molecule: Hypoxia inducible factor 1α (from UniProt Q16665 1-826)
binding [2]: binds
binding [1]: binds

Molecule: Importin α3 (from UniProt O00629 1-521)
binding [1]: binds

Molecule: BICD2 (from UniProt Q8TD16 1-824)
binding [3]: binds

Molecule: BICD2 (in SK-N-MC cells) (from UniProt Q8TD16 1-824)
binding [4]: binds

Molecule: GSK3β (from UniProt P49841 1-420)
binding [1]: binds

Other lines, results leading:

binding [1]: binds
Molecule: RanBP2 (from UniProt P49792 1-3224)

binding [5]: binds
B1: Bicaudal D homolog 1 (protein, UniProt Q96G01 1-975)
chain: MAAEEVLQTVDHYKTEIERLTKELTETTHEKIQAAEYGLVVLEEKLTLKQQYDELEAEYDSLKQELEQLKEAFGQSFSIHRKVAEDGETREETLLQESASKEAYYLGKILEMQNELKQSRAVVTNVQAENERLTAVVQDLKENNEMVELQRIRMKDEIREYKFREARLLQDYTELEEENITLQKLVSTLKQNQVEYEGLKHEIKRFEEETVLLNSQLEDAIRLKEIAEHQLEEALETLKNEREQKNNLRKELSQYISLNDNHISISVDGLKFAEDGSEPNNDDKMNGHIHGPLVKLNGDYRTPTLRKGESLNPVSDLFSELNISEIQKLKQQLMQVEREKAILLANLQESQTQLEHTKGALTEQHERVHRLTEHVNAMRGLQSSKELKAELDGEKGRDSGEEAHDYEVDINGLEILECKYRVAVTEVIDLKAEIKALKEKYNKSVENYTDEKAKYESKIQMYDEQVTSLEKTTKESGEKMAHMEKELQKMTSIANENHSTLNTAQDELVTFSEELAQLYHHVCLCNNETPNRVMLDYYRQSRVTRSGSLKGPDDPRGLLSPRLARRGVSSPVETRTSSEPVAKESTEASKEPSPTKTPTISPVITAPPSSPVLDTSDIRKEPMNIYNLNAIIRDQIKHLQKAVDRSLQLSRQRAAARELAPMIDKDKEALMEEILKLKSLLSTKREQIATLRAVLKANKQTAEVALANLKNKYENEKAMVTETMTKLRNELKALKEDAATFSSLRAMFATRCDEYVTQLDEMQRQLAAAEDEKKTLNTLLRMAIQQKLALTQRLEDLEFDHEQSRRSKGKLGKSKIGSPKVSGEASVTVPTIDTYLLHSQGPQTPNIRVSSGTQRKRQFSPSLCDQSRPRTSGASYLQNLLRVPPDPTSTESFLLKGPPSMSEFIQGHRLSKEKRLTVAPPDCQQPAASVPPQCSQLAGRQDCPTVSPDTALPEEQPHSSSQCAPLHCLSKPPHP

binding [4]: binds
B2: BICD1 (in SK-N-MC cells) (protein, UniProt Q96G01 1-975)
chain: MAAEEVLQTVDHYKTEIERLTKELTETTHEKIQAAEYGLVVLEEKLTLKQQYDELEAEYDSLKQELEQLKEAFGQSFSIHRKVAEDGETREETLLQESASKEAYYLGKILEMQNELKQSRAVVTNVQAENERLTAVVQDLKENNEMVELQRIRMKDEIREYKFREARLLQDYTELEEENITLQKLVSTLKQNQVEYEGLKHEIKRFEEETVLLNSQLEDAIRLKEIAEHQLEEALETLKNEREQKNNLRKELSQYISLNDNHISISVDGLKFAEDGSEPNNDDKMNGHIHGPLVKLNGDYRTPTLRKGESLNPVSDLFSELNISEIQKLKQQLMQVEREKAILLANLQESQTQLEHTKGALTEQHERVHRLTEHVNAMRGLQSSKELKAELDGEKGRDSGEEAHDYEVDINGLEILECKYRVAVTEVIDLKAEIKALKEKYNKSVENYTDEKAKYESKIQMYDEQVTSLEKTTKESGEKMAHMEKELQKMTSIANENHSTLNTAQDELVTFSEELAQLYHHVCLCNNETPNRVMLDYYRQSRVTRSGSLKGPDDPRGLLSPRLARRGVSSPVETRTSSEPVAKESTEASKEPSPTKTPTISPVITAPPSSPVLDTSDIRKEPMNIYNLNAIIRDQIKHLQKAVDRSLQLSRQRAAARELAPMIDKDKEALMEEILKLKSLLSTKREQIATLRAVLKANKQTAEVALANLKNKYENEKAMVTETMTKLRNELKALKEDAATFSSLRAMFATRCDEYVTQLDEMQRQLAAAEDEKKTLNTLLRMAIQQKLALTQRLEDLEFDHEQSRRSKGKLGKSKIGSPKVSGEASVTVPTIDTYLLHSQGPQTPNIRVSSGTQRKRQFSPSLCDQSRPRTSGASYLQNLLRVPPDPTSTESFLLKGPPSMSEFIQGHRLSKEKRLTVAPPDCQQPAASVPPQCSQLAGRQDCPTVSPDTALPEEQPHSSSQCAPLHCLSKPPHP
